Our source for the T/C and survivor count values is PubChem BioAssay AID190 (DTP/NCI, 2004).

The list does not hold the whole screen: it is rich in T/C values a quarter to a half above the control, in often repeated tests (any T/C) and in doses without a T/C. Further doses and runs are listed elsewhere. T/C: endpoint of the treated group in % of that of the vehicle group. Some entries give survivors of the animals treated and no T/C: the source files T/C as zero there, which appears to mark a toxic dose or a test without result, not a measured value. Some doses without a T/C left all or most animals alive at the check, yet need not have been tolerated: survival well below the control is almost never listed, so the zero probably covers shortened survival too. Counts of survivors are from the toxicity check (mostly the fifth day) where no day follows; animals may have died later. Schedule codes are those of the source, read here as Q, the interval in days (D) or hours (H), X, the number of doses. For survival time, the PubChem record calls one and a half times the control and up active, and a quarter to a half above the control has no call in these data; cut-offs in other NCI protocols can differ. Some T/C values carry the count of animals alive at the toxicity check (mostly the fifth day); without a count, all were alive then. Some entries hold several experiments; the values are given in rising order.

For this assay, the system named is AKR/Lw mice, AKR lymphoma ip, median survival T/C. The assay can be described thus: NCI In Vivo Anticancer Drug Screen. Data for tumor model Lymphoma AKR (Transplanted) (intraperitoneal) in AKR/Lw mice. The settings on record: T/C endpoint: median survival time, higher T/C = longer survival. As for the experimental part: The antitumor activity of compounds was measured in mice bearing transplantable tumors. Survival or tumor size were measured and the results are expressed as the measurement made in the treated group (T) divided by the measurement made in the vehicle treated control group (C). The tumor model used in this assay is Lymphoma AKR (Transplanted) (intraperitoneal) in AKR/Lw mice

The mark [1] stands for this setting: dose: 150.0 mg/kg/injection, schedule: Q01DX001 (ip), vehicle: saline with Tween-80.

As to `CCCCCCCCCCCCCCCC(=O)OCC1OC(n2ccc(N)nc2=O)C(O)C1O` (stereo not drawn), the T/C runs as follows: (dose: 0.31 mg/kg/injection, schedule: Q01DX015 (ip), vehicle: saline with Tween-80) 131 % of control; (dose: 1.25 mg/kg/injection, schedule: Q01DX010 (ip), vehicle: saline with Tween-80) 130 % of control; (dose: 2.5 mg/kg/injection, schedule: Q01DX010 (ip), vehicle: saline with Tween-80) 136 and 147 % of control; (dose: 7.5 mg/kg/injection, schedule: Q01DX005 (ip), vehicle: saline with Tween-80, evaluated on day 5) 147 and 200 % of control; (dose: 7.5 mg/kg/injection, schedule: Q01DX005 (ip), vehicle: saline with Tween-80, evaluated on day 60) 126 and 165 % of control [9 of 10 alive]; (dose: 15.0 mg/kg/injection, schedule: Q01DX005 (ip), vehicle: saline with Tween-80, evaluated on day 5) 238 and 297 % of control. The T/C runs as follows: (dose: 15.0 mg/kg/injection, schedule: Q01DX005 (ip), vehicle: saline with Tween-80, evaluated on day 60) 136 and 148 % of control; (dose: 25.0 mg/kg/injection, schedule: Q01DX001 (ip), vehicle: saline with Tween-80, evaluated on day 5) 128 % of control; (dose: 25.0 mg/kg/injection, schedule: Q01DX001 (ip), vehicle: saline with Tween-80, evaluated on day 60) 128 and 135 % of control; (dose: 25.0 mg/kg/injection, schedule: Q14DX003 (ip), vehicle: saline with Tween-80) 131 % of control; (dose: 25.0 mg/kg/injection, schedule: Q14DX004 (ip), vehicle: saline with Tween-80) 142 % of control; (dose: 30.0 mg/kg/injection, schedule: Q01DX005 (ip), vehicle: saline with Tween-80, evaluated on day 5) 210 and 303 % of control. Besides, the T/C is 176 and 210 % of control (dose: 30.0 mg/kg/injection, schedule: Q01DX005 (ip), vehicle: saline with Tween-80, evaluated on day 60); 132 % of control (dose: 37.5 mg/kg/injection, schedule: Q01DX001 (ip), vehicle: saline with Tween-80); 145, 158, 192 % of control (dose: 50.0 mg/kg/injection, schedule: Q01DX001 (ip), vehicle: saline with Tween-80, evaluated on day 5); 158 and 272 % of control (dose: 50.0 mg/kg/injection, schedule: Q01DX001 (ip), vehicle: saline with Tween-80, evaluated on day 60); 129 % of control (dose: 50.0 mg/kg/injection, schedule: Q09DX002 (ip), vehicle: saline with Tween-80); 140 % of control (dose: 50.0 mg/kg/injection, schedule: Q14DX004 (ip), vehicle: saline with Tween-80). Also, the T/C is, setting by setting: (dose: 75.0 mg/kg/injection, schedule: Q01DX001 (ip), vehicle: saline with Tween-80, evaluated on day 5) 72, 115, 155, 163, 208 % of control; (dose: 75.0 mg/kg/injection, schedule: Q01DX001 (ip), vehicle: saline with Tween-80, evaluated on day 60) 155, 160, 272 % of control; (dose: 75.0 mg/kg/injection, schedule: Q09DX002 (ip), vehicle: saline with Tween-80) 135 % of control; (dose: 100.0 mg/kg/injection, schedule: Q01DX001 (ip), vehicle: saline with Tween-80, evaluated on day 5) 105, 177, 201, 246, 247 % of control; (dose: 100.0 mg/kg/injection, schedule: Q01DX001 (ip), vehicle: saline with Tween-80, evaluated on day 60) 246 and 272 % of control; under setting [1], 103, 167, 169, 327 % of control. Further, the survivor count by setting is: (dose: 30.0 mg/kg/injection, schedule: Q01DX015 (ip), vehicle: saline with Tween-80) 10 of 10; (dose: 40.0 mg/kg/injection, schedule: Q01DX010 (ip), vehicle: saline with Tween-80) 10 of 10; (dose: 60.0 mg/kg/injection, schedule: Q01DX005 (ip), vehicle: saline with Tween-80) 9 of 10; (dose: 80.0 mg/kg/injection, schedule: Q01DX010 (ip), vehicle: saline with Tween-80) 10 of 10; (dose: 120.0 mg/kg/injection, schedule: Q01DX005 (ip), vehicle: saline with Tween-80) 10 of 10; under setting [1], 6 of 10. Also, the survivor count is, setting by setting: (dose: 240.0 mg/kg/injection, schedule: Q01DX005 (ip), vehicle: saline with Tween-80) 5 of 10; (dose: 300.0 mg/kg/injection, schedule: Q01DX001 (ip), vehicle: saline with Tween-80) 5 of 10; (dose: 450.0 mg/kg/injection, schedule: Q01DX001 (ip), vehicle: saline with Tween-80) 3 of 10; (dose: 600.0 mg/kg/injection, schedule: Q01DX001 (ip), vehicle: saline with Tween-80) 0 of 10.

For `CC1(C)N=C(N)N=C(N)N1c1cc(Cl)c(Cl)cc1Cl`, the survivor count runs as follows: (dose: 75.0 mg/kg/injection, schedule: Q01DX001 (ip), vehicle: Klucel (hydroxypropylcellulose) (HPC)) 4 of 10; (dose: 100.0 mg/kg/injection, schedule: Q01DX001 (ip), vehicle: Klucel (hydroxypropylcellulose) (HPC)) 0 of 10; (dose: 200.0 mg/kg/injection, schedule: Q01DX001 (ip), vehicle: Klucel (hydroxypropylcellulose) (HPC)) 0 of 10; (dose: 400.0 mg/kg/injection, schedule: Q01DX001 (ip), vehicle: Klucel (hydroxypropylcellulose) (HPC)) 0 of 10.
